This experiment concerns the target T1, pyruvate carboxylase (human (endogenous in hADSC)) (UniProt P11498).
T1 sequence: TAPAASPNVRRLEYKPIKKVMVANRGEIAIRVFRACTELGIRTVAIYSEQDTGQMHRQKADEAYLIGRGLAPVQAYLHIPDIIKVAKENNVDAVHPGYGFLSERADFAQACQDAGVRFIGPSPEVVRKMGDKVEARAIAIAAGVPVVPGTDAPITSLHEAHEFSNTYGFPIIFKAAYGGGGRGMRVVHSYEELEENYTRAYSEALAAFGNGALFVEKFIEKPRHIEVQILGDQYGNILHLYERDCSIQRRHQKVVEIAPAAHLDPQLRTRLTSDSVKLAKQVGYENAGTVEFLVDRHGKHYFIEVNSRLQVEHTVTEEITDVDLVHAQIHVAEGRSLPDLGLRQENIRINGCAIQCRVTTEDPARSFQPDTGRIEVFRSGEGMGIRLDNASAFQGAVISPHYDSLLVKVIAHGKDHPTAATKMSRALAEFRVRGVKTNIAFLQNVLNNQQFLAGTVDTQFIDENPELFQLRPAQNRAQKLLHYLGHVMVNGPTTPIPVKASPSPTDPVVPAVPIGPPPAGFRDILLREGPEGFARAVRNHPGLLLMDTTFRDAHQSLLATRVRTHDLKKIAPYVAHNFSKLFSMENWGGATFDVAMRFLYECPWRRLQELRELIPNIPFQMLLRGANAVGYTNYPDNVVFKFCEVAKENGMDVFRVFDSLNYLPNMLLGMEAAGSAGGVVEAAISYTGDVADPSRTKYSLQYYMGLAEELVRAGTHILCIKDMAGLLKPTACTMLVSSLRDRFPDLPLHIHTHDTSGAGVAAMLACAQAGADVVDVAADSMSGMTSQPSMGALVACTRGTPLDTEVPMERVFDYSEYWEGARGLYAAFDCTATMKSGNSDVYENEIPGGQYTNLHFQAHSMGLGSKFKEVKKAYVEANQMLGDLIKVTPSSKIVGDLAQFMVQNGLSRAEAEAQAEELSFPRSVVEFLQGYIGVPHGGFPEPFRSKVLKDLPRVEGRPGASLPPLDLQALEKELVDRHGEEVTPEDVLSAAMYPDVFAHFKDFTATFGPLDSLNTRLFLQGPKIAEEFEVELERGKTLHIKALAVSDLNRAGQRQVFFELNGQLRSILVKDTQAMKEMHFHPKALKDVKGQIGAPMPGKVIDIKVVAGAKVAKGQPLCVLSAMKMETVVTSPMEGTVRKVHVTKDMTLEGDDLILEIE
Kind of experiment: affinity purification with mass spectrometry; PC immunoprecipitated with 3 ug PC antibody (ProteinTech) or rabbit IgG, Protein A/G beads, from the mitochondria/membrane fraction of differentiated hADSC in RIP lysis buffer without DTT; cells transfected with GapmeR NC or GapmeR 1 (ADIPINT knockdown); partners identified by mass spectrometry.

Amino acid sequences for entries named in this document (tags omitted).
UniProt P35558: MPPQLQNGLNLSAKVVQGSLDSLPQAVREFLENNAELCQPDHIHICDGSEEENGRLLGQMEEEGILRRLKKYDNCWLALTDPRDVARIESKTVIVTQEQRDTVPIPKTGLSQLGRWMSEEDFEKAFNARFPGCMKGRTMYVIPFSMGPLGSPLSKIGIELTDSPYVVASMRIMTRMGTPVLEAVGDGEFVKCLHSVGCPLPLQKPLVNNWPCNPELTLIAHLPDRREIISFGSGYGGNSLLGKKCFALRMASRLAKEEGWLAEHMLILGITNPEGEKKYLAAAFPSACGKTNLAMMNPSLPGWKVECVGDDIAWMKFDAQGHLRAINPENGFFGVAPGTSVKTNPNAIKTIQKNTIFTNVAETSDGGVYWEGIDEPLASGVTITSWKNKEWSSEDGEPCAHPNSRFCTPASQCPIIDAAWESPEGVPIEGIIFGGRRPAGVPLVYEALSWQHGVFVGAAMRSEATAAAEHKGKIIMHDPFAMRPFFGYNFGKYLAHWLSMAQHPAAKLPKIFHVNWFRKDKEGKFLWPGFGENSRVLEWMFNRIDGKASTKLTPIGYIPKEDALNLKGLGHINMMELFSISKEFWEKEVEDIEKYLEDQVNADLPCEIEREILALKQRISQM

These are yes or no findings as the source states them, for the method shown. In cells and extracts the contact can be indirect. These calls come from enrichment with a bait or labelling near it, and not all partners need be listed.

On to “PCK1 (from UniProt P35558 1-622) (enzyme)”, for which the binding entry was “binds”.

These data come from PMC9135762.
